No constants are given. Whether binding was seen depends on the method and setting. Some results given as binding are weak or reduced against the parent protein; the word gives no strength.
Target: T1, USP1 (human) (UniProt O94782)
T1 sequence: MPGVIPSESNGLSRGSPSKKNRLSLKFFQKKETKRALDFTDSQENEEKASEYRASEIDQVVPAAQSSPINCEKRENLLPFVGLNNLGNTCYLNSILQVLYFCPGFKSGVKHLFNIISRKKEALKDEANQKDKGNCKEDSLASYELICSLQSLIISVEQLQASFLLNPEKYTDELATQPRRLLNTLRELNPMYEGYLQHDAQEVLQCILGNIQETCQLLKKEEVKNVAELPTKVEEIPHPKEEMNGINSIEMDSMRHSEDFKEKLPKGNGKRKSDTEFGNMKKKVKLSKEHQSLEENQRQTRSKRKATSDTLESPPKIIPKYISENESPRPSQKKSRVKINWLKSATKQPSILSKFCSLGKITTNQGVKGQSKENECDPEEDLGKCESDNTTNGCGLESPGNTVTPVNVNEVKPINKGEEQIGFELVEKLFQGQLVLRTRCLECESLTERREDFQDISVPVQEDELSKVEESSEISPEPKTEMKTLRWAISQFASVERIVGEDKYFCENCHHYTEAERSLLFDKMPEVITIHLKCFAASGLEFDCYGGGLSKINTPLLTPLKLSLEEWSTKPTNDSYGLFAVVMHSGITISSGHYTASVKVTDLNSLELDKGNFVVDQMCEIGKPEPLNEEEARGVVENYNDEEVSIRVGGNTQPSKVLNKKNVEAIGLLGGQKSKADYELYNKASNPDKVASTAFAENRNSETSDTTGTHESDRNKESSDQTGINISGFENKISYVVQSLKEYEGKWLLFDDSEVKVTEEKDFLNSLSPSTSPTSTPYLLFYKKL
Experiment: co-purification; untagged UAF1 co-expressed with N-terminally six-histidine-tagged USP1 in Sf21 insect cells; NiNTA chromatography, anion exchange and gel filtration

By UniProt entry, the sequences of proteins in these tests, tags left out.
UniProt Q8TAF3: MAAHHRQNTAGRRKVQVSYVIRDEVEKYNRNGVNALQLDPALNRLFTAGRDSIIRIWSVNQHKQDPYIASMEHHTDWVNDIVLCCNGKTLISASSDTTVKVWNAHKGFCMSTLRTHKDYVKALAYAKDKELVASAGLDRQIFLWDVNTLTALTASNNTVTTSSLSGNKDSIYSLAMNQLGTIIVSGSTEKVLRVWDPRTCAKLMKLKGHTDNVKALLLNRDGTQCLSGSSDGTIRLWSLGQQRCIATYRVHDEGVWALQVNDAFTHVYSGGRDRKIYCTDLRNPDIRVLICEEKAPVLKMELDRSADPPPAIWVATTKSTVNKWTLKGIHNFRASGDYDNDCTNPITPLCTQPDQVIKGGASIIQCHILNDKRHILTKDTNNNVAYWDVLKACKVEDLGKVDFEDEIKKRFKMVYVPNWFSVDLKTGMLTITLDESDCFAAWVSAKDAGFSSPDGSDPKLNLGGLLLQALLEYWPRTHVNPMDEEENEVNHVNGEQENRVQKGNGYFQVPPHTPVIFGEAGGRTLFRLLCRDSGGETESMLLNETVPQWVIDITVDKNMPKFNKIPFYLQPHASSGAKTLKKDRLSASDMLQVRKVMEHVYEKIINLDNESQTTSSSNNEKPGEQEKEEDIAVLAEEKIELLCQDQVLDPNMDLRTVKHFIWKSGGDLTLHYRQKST

binding: binds
Substance: UAF1 (untagged) (from UniProt Q8TAF3 1-677)

From PMC9890228 (The EMBO Journal, 2022)
